Results taken from PubChem BioAssay AID504834 (National Center for Advancing Translational Sciences (NCATS), 2011).
Among all 320,000 compounds or so, about 22,000 (6.9%) were called active. Inconclusive means that the source gave no clear call. Such entries were picked first, then a sample of the others. Calls come from the whole dose curve; as a rule, active = well fitted inhibition curve with a large enough effect; inconclusive = small, poorly fitted or top-dose-only effect, or another doubt; inactive = no such curve, though single readings can be large or run the other way. Where the call is inconclusive, the potency comes from a doubtful curve fit.

Assay: Primary qHTS for delayed death inhibitors of the malarial parasite plastid, 96 hour incubation
Settings: P. falciparum luciferase reporter growth; series mostly up to 28.7 µM; activity change, negative = inhibition: at the top concentration
Summary of the method: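 Plates of compound plus infected erythrocytes (2% hematocrit, 0.05% parasitemia final) incubate 96 hours, 37 C, 5% CO2. Detection reagent added; reduced luminescence from the parasites' luciferase reporter flags inhibition.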
% is set by controls: 0 for no effect and ±100 for the full control effect; potency is the fitted concentration of half-maximal effect.

Row | Compound | Potency | activity change, negative = inhibition
1 | COC(=O)C1=C(C(=O)OC)[C@@H]2N(Cc3ccccc3)c3ccccc3[C@@]23C[C@@H](C(=O)OC)N(C(=O)c2cccs2)C3=N1 | inconclusive: 13.1 µM [inhibitor, single point] | –
2 | C#CCNC(=O)C1=C[C@H](c2csc3ccccc23)[C@@H](CCCO)[C@H](OCC)O1 | inconclusive: 10.4 µM [inhibitor, partial curve, poor fit] | –
3 | Cc1ccc(NC(=O)C(=O)NN)cc1 | – | inactive: 8.83%
4 | COc1ccc(-n2c(Cc3cccn3C)nnc2SCC(=O)Nc2ccc(F)cc2F)cc1 | inconclusive: 10.4 µM [inhibitor, single point] | –
5 | COc1cc(/C=C/C(=O)c2c(O)ccc3c(C)cc(=O)oc23)ccc1O | inconclusive: 18.5 µM [inhibitor, single point] | –
6 | COc1ccc(NC(=O)CSc2nnc(NC(=O)c3ccco3)s2)cc1OC | – | inactive: -7.84%
7 | COc1ccc2[nH]cc(C(=O)CN3CCN(C/C=C/c4ccccc4)CC3)c2c1 | active: 10.4 µM | –
8 | O=C(CCc1ccccc1)N=C1SC2CS(=O)(=O)CC2N1c1ccccc1F (configuration not stated) | – | inactive: 46.5%
9 | COc1cc(/C=N/NC(=O)c2ccccc2)ccc1OS(=O)(=O)c1ccccc1 | inconclusive: 10.4 µM [inhibitor, single point] | –
10 | O=C(Cc1ccc(F)cc1)NC1CCSC1=O (configuration not stated) | – | inactive: 59.9%
11 | Cc1ccccc1S(=O)(=O)N(CC(O)CN1CCCCC1)c1ccccc1 (configuration not stated) | – | inactive: -17.6%
12 | Cc1c(C(=O)N2CCN(Cc3ccc4c(c3)OCO4)CC2)sc2ncnc(N3CCN(c4ccccc4)CC3)c12 | inconclusive: 18.5 µM [inhibitor, single point] | –
13 | CCOc1ccc(S(=O)(=O)NCCC(=O)NCC(c2ccc(OC)cc2)N2CCCCC2)cc1 (configuration not stated) | inconclusive: 18.5 µM [inhibitor, single point] | –
14 | CC(=O)c1c(C)[nH]c(C(=O)COc2ccc(C#N)cc2)c1C | inconclusive: 2.62 µM [inhibitor, partial curve, poor fit] | –
15 | CCc1cc2c(C)ccc(C)c2nc1SCC(=O)Nc1c[nH]c(=O)[nH]c1=O | inconclusive: 7.38 µM [inhibitor, partial curve] | –
16 | Cn1c(-c2ccccc2)c(/C=N/NC(=O)c2cccnc2)c2ccccc21 | inconclusive: 0.828 µM [inhibitor, partial curve, poor fit] | –
17 | Cc1ccc2[nH]cc(S(=O)(=O)c3ccc(C)c(C)c3)c(=O)c2c1 | inconclusive: 2.62 µM [inhibitor, partial curve, poor fit] | –
18 | CC(C)c1ccc(S(=O)(=O)N2CCN(C(=O)c3ccncc3)CC2)cc1 | inconclusive: 18.5 µM [inhibitor, single point] | –
19 | CCCCCCN(C(=O)CCCCCN1C(=O)NC(c2ccc(-c3ccccc3)cc2)C(C(=O)OCc2ccccc2)=C1C)C(C(=O)NCCCC)c1ccccn1 (configuration not stated) | active: 2.33 µM | –
20 | O=C(NNc1cccc(Cl)n1)Nc1cccc(Cl)c1 | active: 13.1 µM | –
21 | O=C(CSc1ncnc2sccc12)NCc1ccc2c(c1)OCO2 | inconclusive: 11.7 µM [inhibitor, single point] | –
22 | CN1C(=O)C(CC(=O)Nc2ccc(F)cc2)N(Cc2cccs2)C1=S (configuration not stated) | inconclusive: 18.5 µM [inhibitor, single point] | –
23 | CCC(C)Sc1cc(-c2nc3ccccn3c2NC2CCCCC2)ccc1OC (configuration not stated) | inconclusive: 8.28 µM [inhibitor, partial curve, poor fit] | –

Row | Compound | Potency | activity change, negative = inhibition
24 | O=C(NC1CCCN(Cc2ccccc2F)C1)c1cccc(N2CCCC2=O)c1 (configuration not stated) | inconclusive: 8.28 µM [inhibitor, partial curve, poor fit] | –
25 | COc1ccc(CN=C2NC(=O)CC(C(=O)Nc3ccc(F)cc3)S2)cc1 (configuration not stated) | inconclusive: 18.5 µM [inhibitor, single point] | –
26 | NNC(=S)Nc1ccc(Cl)cc1 | inconclusive: 11.7 µM [inhibitor, single point] | –
27 | Cc1ccc(CCNC(=O)C2CCCN(S(=O)(=O)c3c(C)noc3/C=C/N(C)C)C2)cc1 (configuration not stated) | inconclusive: 5.22 µM [inhibitor, partial curve] | –
28 | COc1ccccc1OCCNC(=O)c1cccs1 | inconclusive: 20.8 µM [inhibitor, partial curve, poor fit] | –
29 | COC(=O)c1ccc(C2C(C(=O)c3ccc(C)o3)=C(O)C(=O)N2c2cc(C)on2)cc1 (configuration not stated) | inconclusive: 18.5 µM [inhibitor, partial curve, poor fit] | –
30 | Cc1ccc(S(=O)(=O)N2CCN(c3nc(C(C)C)c4c(c3C#N)CC(C)(C)OC4)CC2)cc1 | – | inactive: 100%
31 | Cc1nc(N2CCCCCC2)c2ccccc2n1 | inconclusive: 13.1 µM [inhibitor, single point] | –
32 | C#CCNC(=O)C1=C[C@@H](C2CCCCC2)C[C@@H](OCCCCO)O1 | inconclusive: 11.7 µM [inhibitor, partial curve] | –
33 | Cc1csc(NC(=O)CCn2c(=O)sc3ccccc32)n1 | – | inactive: 0.665%
34 | COc1ccccc1/C=C/C=N/NC(=O)c1ccc2nc[nH]c2c1 | active: 9.28 µM | –
35 | Cc1cc(C)c[n+](-c2nc3ccccc3nc2[N-]S(=O)(=O)c2cccs2)c1 | inconclusive: 1.85 µM [inhibitor, full curve, poor fit] | –
36 | NC(=O)N[C@@H](Cc1c[nH]c2ccccc12)C(=O)OCC(=O)N1CCCCC1 | – | inactive: 68.2%
37 | Nc1cc(C(=O)O)ccc1Sc1ccccc1C(=O)O | – | inactive: 35.6%
38 | CC1CCc2sc(C(=O)NNC(=S)NC3CC3)cc2C1 (configuration not stated) | – | inactive: 20.1%
39 | CC1Cc2cc(-c3csc(NC(=O)Cc4cccs4)n3)ccc2N1S(C)(=O)=O (configuration not stated) | inconclusive: 10.4 µM [inhibitor, single point] | –
40 | COc1ccc(S(=O)(=O)N2CCC(NC(=O)OCc3c(Cl)cccc3Cl)CC2)cc1 | inconclusive: 16.5 µM [inhibitor, single point] | –
41 | CC1(C)CC(=O)C2=C(C1)N(CCN1CCOCC1)C1=C(C(=O)CC(C)(C)C1)C2c1cccc(Cl)c1 | inconclusive: 13.1 µM [inhibitor, partial curve] | –
42 | FC(F)(F)c1cc(-c2cccs2)nc2nc(N3CCOCC3)sc12 | inconclusive: 9.28 µM [inhibitor, partial curve] | –
43 | O=C(O)CSc1nnc(COc2ccccc2)n1-c1ccccc1 | – | inactive: -28.7%
44 | CC(=O)c1cccc(N2Cc3ccccc3C2=NC(=O)CCl)c1 | active: 13.1 µM | –
45 | COc1ccc(CN(C)C(=O)c2ccccc2Sc2ccccc2C#N)c(OC)c1 | inconclusive: 11.7 µM [inhibitor, single point] | –
46 | Cc1c(NC(=O)C2CCCN2S(=O)(=O)c2ccc(Cl)cc2)c(=O)n(-c2ccccc2)n1C (configuration not stated) | inconclusive: 5.22 µM [inhibitor, partial curve, poor fit] | –

Row | Compound | Potency | activity change, negative = inhibition
47 | NS(=O)(=O)c1ccc(CCNC(=S)Nc2ccccc2)cc1 | inconclusive: 6.57 µM [inhibitor, partial curve, poor fit] | –
48 | CCOc1ccccc1N1CCN(CC(=O)N(CC(C)C)c2c(N)n(CC(C)C)c(=O)[nH]c2=O)CC1 | – | inactive: -10.5%
49 | CCOc1ccc2nc3cc(N)ccc3c(N)c2c1 | active: 0.849 µM | –
50 | CC(/C=N/NC(=O)c1cccc(F)c1)=C\c1ccccc1 | – | inactive: -2.58%
51 | O=C(CN1C(=O)NC2(CCc3ccccc32)C1=O)c1c[nH]c2ccccc12 (configuration not stated) | inconclusive: 4.65 µM [inhibitor, partial curve] | –
52 | CC1(C)Cc2c(sc3nc(=S)[nH]c(N)c23)CO1 | inconclusive: 11.7 µM [inhibitor, single point] | –
53 | CC(C)(C)C(=O)N1CCN(C(c2ccccc2)c2ccccc2)CC1 | active: 10.4 µM | –
54 | COc1ccc(Cl)cc1N1C(=O)C2CCCN2C1c1sccc1C (configuration not stated) | inconclusive: 0.0738 µM [inhibitor, full curve, poor fit] | –
55 | COc1ccc(-c2nc(CS(=O)(=O)CC(=O)NCc3cccc(OC)c3OC)c(C)o2)cc1 | inconclusive: 10.4 µM [inhibitor, single point] | –
56 | O=C(NN(C(=O)C1CC1)c1nc2ccccc2s1)C1CC1 | active: 4.15 µM | –
57 | CC(=O)Nc1ccc(OC(=O)N2CCCCC2)cc1 | inconclusive: 13.1 µM [inhibitor, single point] | –
58 | CCCCC(C(=O)NC(C)(C)C)N(Cc1ccccc1)C(=O)c1snc(C(N)=O)c1N (configuration not stated) | inconclusive: 4.15 µM [inhibitor, single point] | –
59 | Cc1onc(-c2c(Cl)cccc2Cl)c1C(=O)Nn1cnnc1 | – | inactive: 34.5%
60 | COc1ccc(-c2cn(CCc3c[nH]c4ccccc34)nn2)cc1 | active: 9.28 µM | –
61 | COc1ccc(N(CC(=O)NC2CCCC2)C(=O)c2ccc(N3CCCCC3)nc2)cc1 | inconclusive: 0.738 µM [inhibitor, single point] | –
62 | COc1ccc(CCNC(=O)c2ccc3c(c2)N(Cc2ccc(F)cc2)CCS3)c(OC)c1 | inconclusive: 10.4 µM [inhibitor, single point] | –
63 | CN(c1ccccc1)S(=O)(=O)c1cccc(C(=O)NCc2ccccc2CN2CCCC2)c1 | inconclusive: 11.7 µM [inhibitor, single point] | –
64 | O=C1C=C(NCc2ccc(Cl)cc2)CCC1 | – | inactive: -79.7%
65 | O=C(c1cccc(NS(=O)(=O)c2cccc(F)c2)c1)N1CCCC1 | inconclusive: 11.7 µM [inhibitor, single point] | –
66 | COc1cccc(N=C2SC(C(=O)Nc3ccccc3F)CC(=O)N2C)c1 (configuration not stated) | inconclusive: 4.15 µM [inhibitor, single point] | –
67 | CC(C)CCn1cnc2c(c1=O)c1nc3ccccc3nc1n2Cc1ccc2c(c1)OCO2 | inconclusive: 11.7 µM [inhibitor, single point] | –

Reformatted: results already given
Row	Compound	Potency	activity change, negative = inhibition
44	CC(=O)c1cccc(N2Cc3ccccc3C2=NC(=O)CCl)c1	active: 13.1 µM	–
45	COc1ccc(CN(C)C(=O)c2ccccc2Sc2ccccc2C#N)c(OC)c1	inconclusive: 11.7 µM [inhibitor, single point]	–
46	Cc1c(NC(=O)C2CCCN2S(=O)(=O)c2ccc(Cl)cc2)c(=O)n(-c2ccccc2)n1C (configuration not stated)	inconclusive: 5.22 µM [inhibitor, partial curve, poor fit]	–
47	NS(=O)(=O)c1ccc(CCNC(=S)Nc2ccccc2)cc1	inconclusive: 6.57 µM [inhibitor, partial curve, poor fit]	–
48	CCOc1ccccc1N1CCN(CC(=O)N(CC(C)C)c2c(N)n(CC(C)C)c(=O)[nH]c2=O)CC1	–	inactive: -10.5%
49	CCOc1ccc2nc3cc(N)ccc3c(N)c2c1	active: 0.849 µM	–
50	CC(/C=N/NC(=O)c1cccc(F)c1)=C\c1ccccc1	–	inactive: -2.58%
51	O=C(CN1C(=O)NC2(CCc3ccccc32)C1=O)c1c[nH]c2ccccc12 (configuration not stated)	inconclusive: 4.65 µM [inhibitor, partial curve]	–
52	CC1(C)Cc2c(sc3nc(=S)[nH]c(N)c23)CO1	inconclusive: 11.7 µM [inhibitor, single point]	–
53	CC(C)(C)C(=O)N1CCN(C(c2ccccc2)c2ccccc2)CC1	active: 10.4 µM	–
54	COc1ccc(Cl)cc1N1C(=O)C2CCCN2C1c1sccc1C (configuration not stated)	inconclusive: 0.0738 µM [inhibitor, full curve, poor fit]	–
55	COc1ccc(-c2nc(CS(=O)(=O)CC(=O)NCc3cccc(OC)c3OC)c(C)o2)cc1	inconclusive: 10.4 µM [inhibitor, single point]	–
56	O=C(NN(C(=O)C1CC1)c1nc2ccccc2s1)C1CC1	active: 4.15 µM	–
57	CC(=O)Nc1ccc(OC(=O)N2CCCCC2)cc1	inconclusive: 13.1 µM [inhibitor, single point]	–
58	CCCCC(C(=O)NC(C)(C)C)N(Cc1ccccc1)C(=O)c1snc(C(N)=O)c1N (configuration not stated)	inconclusive: 4.15 µM [inhibitor, single point]	–
59	Cc1onc(-c2c(Cl)cccc2Cl)c1C(=O)Nn1cnnc1	–	inactive: 34.5%
60	COc1ccc(-c2cn(CCc3c[nH]c4ccccc34)nn2)cc1	active: 9.28 µM	–
61	COc1ccc(N(CC(=O)NC2CCCC2)C(=O)c2ccc(N3CCCCC3)nc2)cc1	inconclusive: 0.738 µM [inhibitor, single point]	–
62	COc1ccc(CCNC(=O)c2ccc3c(c2)N(Cc2ccc(F)cc2)CCS3)c(OC)c1	inconclusive: 10.4 µM [inhibitor, single point]	–
63	CN(c1ccccc1)S(=O)(=O)c1cccc(C(=O)NCc2ccccc2CN2CCCC2)c1	inconclusive: 11.7 µM [inhibitor, single point]	–
64	O=C1C=C(NCc2ccc(Cl)cc2)CCC1	–	inactive: -79.7%

Quoted from the listing:
CCOc1ccc2nc3cc(N)ccc3c(N)c2c1 – Potency: active: 0.849 µM
COc1cccc(N=C2SC(C(=O)Nc3ccccc3F)CC(=O)N2C)c1 (configuration not stated) – Potency: inconclusive: 4.15 µM [inhibitor, single point]
